One substance from paper doi:10.1101/2025.11.17.688803 can be followed below.

The assay has as its target T1, HA-tagged TAK1 (transforming growth factor-beta-activated kinase 1), wild type (UniProt O43318).
T1 sequence: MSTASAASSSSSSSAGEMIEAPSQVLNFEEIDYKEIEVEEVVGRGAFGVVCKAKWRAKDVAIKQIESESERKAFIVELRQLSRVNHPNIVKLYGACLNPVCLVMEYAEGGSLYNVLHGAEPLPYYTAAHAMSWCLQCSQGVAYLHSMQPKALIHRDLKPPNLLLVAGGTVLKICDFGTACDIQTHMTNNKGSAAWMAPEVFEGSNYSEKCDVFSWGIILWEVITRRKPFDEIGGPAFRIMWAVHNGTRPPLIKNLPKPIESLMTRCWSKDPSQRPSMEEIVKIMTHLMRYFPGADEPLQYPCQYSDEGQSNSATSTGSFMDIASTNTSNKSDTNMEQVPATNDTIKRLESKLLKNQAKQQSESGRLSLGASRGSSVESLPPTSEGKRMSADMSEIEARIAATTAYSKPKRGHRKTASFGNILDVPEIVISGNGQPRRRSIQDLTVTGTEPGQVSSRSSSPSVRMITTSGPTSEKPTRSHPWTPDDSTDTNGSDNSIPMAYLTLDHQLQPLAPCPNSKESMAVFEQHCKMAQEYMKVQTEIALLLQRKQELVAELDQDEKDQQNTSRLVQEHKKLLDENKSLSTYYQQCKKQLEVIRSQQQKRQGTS
Nature of the assay: co-IP.

These are yes or no findings as the source states them, for the method shown. Binding seen in cells or lysates may run through a third protein. Where a sequence is shown, tags or fusion partners need not be part of it.

As for “Myc-LRBA (a.a. 2045-2483) F2406R (mouse) (domain or fragment)”, the binding result is reported as “no binding”.
